Laboratory results: patent publication US12325701B2, “YKL-40 inhibitors and their therapeutic” (Molecure S.A., priority 2022, dated 2025)

Test: AlphaScreen false positive test with biotinylated histag peptide
Conditions: biotinylated histag peptide generates AS signal

CC(=O)N[C@H]1[C@H](O[C@H]2[C@H](O)[C@@H](NC(C)=O)[C@H](O[C@H]3[C@H](O)[C@@H](NC(C)=O)C(O)O[C@@H]3CO)O[C@@H]2CO)O[C@H](CO)[C@@H](O[C@@H]2O[C@H](CO)[C@@H](O[C@@H]3O[C@H](CO)[C@@H](O[C@@H]4O[C@H](CO)[C@@H](O)[C@H](O)[C@H]4NC(C)=O)[C@H](O)[C@H]3NC(C)=O)[C@H](O)[C@H]2NC(C)=O)[C@@H]1O (some centres unmarked) [chitin hexamer, chitohexose]
interference with AS signal in false positive test: non-interfering

heparin sodium salt
interference with AS signal in false positive test: not-interfering
